Results are given in words; binding and its absence hold for the method and conditions named. For part of these data: A result given as binding can be weak or reduced; the word gives no strength.
Key:
[1] = target: TGFβ1 (R&D Systems); test: SPR
[2] = target: TGFβ2 (R&D Systems); test: SPR
[3] = target: TGFβ1 (R&D Systems); test: SPR, TGFβ on chip
[4] = target: TGFβ2 (R&D Systems); test: SPR, TGFβ on chip

binding [1]	binding [2]	binding [3]	binding [4]	Binder
no binding	no binding			felHclb_heterochimera-2 (antibody, V domains shown) VH: QVLLVQSGAEVRTPGASVKIFCKASGYIFITYYMHWVRQSPAQGLEWMGSIFPASGSTSYAQKFQGRLTLTADTSTNTAYMELSSLRSADTAMYYCARGDGNYALDAMDYWGQGTSVTVSS VL: DIVMTQTPPSLSVSPRETASISCRASESVDSYGNSFMHWYLQKPGQSPQLLIYLASNLESGVSDRFSGSGSGTDFTLRISRVEANDTGVYYCQQNNEDPLTFGQ
no binding	no binding			felHclb_heterochimera-5 (antibody, V domains shown) VH: QVLLVQSGAEVRKPGASVKIFCKASGYTFITYYMHWLRQAPEQGLEWMGRIFPASGSTSYAQKFQGRLTLTADTSTNTAYMELSSLRSADTAMYYCARGDGNYALDAMDYWGQGALVTVSS VL: DIVMTQTPPSLSVSPRETASISCRASESVDSYGNSFMHWYLQKPGQSPQLLIYLASNLESGVSDRFSGSGSGTDFTLRISRVEANDTGVYYCQQNNEDPLTFGQ
no binding	no binding			felHclbH636x-KD2-2 (antibody, V domains shown) VH: QVLLVQSGAEVRRPGASVKIFCKASGYIFITYYMHWLRQAPAQGFEWMGQIFPASGSTNYNEMFEGRLTLTADTSTDTAYMELSSLRSADTAVYYCARGDGNYALDAMDYWGHGTIVTVSS VL: DVVMTQTPLSLPVTPGEPASISCRASESVDSYGNSFMHWYLQKPGQSPRRLIYLASNLESGVPDRFSGSGSGTDFTLRISRVEADDVGVYYCQQNNEDPLTFGAGT
no binding	no binding			felHclbH634x-KD2-2 (antibody, V domains shown) VH: QVLLVQSGAEVRKPGASVKIFCKTSGYTFITYYVHWLRQAPAQGFEWMGQIFPASGSTNYNEMFEGRLTLTADTSTNTAYMELSSLRSADTAVYYCARGDGNYALDAMDYWGQGALVTVSS VL: DVVMTQTPLSLPVTPGEPASISCRASESVDSYGNSFMHWYLQKPGQSPRRLIYLASNLESGVPDRFSGSGSGTDFTLRISRVEADDVGVYYCQQNNEDPLTFGAGT
no binding	no binding			felHclb_heterochimera-11 (antibody, V domains shown) VH: QVLLVQSGAEVRRPGASVKIFCKASGYIFITYYMHWLRQAPAQGFEWMGSIFPASGSTSYAQKFQGRLTLTADTSTDTAYMELSSLRSADTAVYYCARGDGNYALDAMDYWGHGTIVTVSS VL: DIVLTQTPASLAVSLGQRATISCRASESVDSYGNSFMHWYQQKSGQPPKLLIYLASNLESGVPARFSGSGSRTDFTLTIDPVEADDAATYYCQQNNEDPLTFGAGTK
no binding	no binding			felHclbH618s-KD2-2 (antibody, V domains shown) VH: QVLLVQSGAEVRKPGASVKIFCKASGYTFITYYMHWLRQAPEQGLEWMGRIFPASGSTSYAQKFQGRLTLTADTSTNTAYMELSSLRSADTAMYYCARGDGNYALDAMDYWGQGALVTVSS VL: DVVMTQTPLSLPVTPGEPASISCRASESVDSYGNSFMHWYLQKPGQSPRRLIYLASNLESGVPDRFSGSGSGTDFTLRISRVEADDVGVYYCQQNNEDPLTFGAGT
no binding	no binding			felHclb_heterochimera-4 (antibody, V domains shown) VH: QVLLVQSGAEVRTPGASVKIFCKASGYIFITYYMHWVRQSPAQGLEWMGQIFPASGSTNYNEMFEGRLTLTADTSTNTAYMELSSLRSADTAMYYCARGDGNYALDAMDYWGQGTSVTVSS VL: DIVMTQTPPSLSVSPRETASISCRASESVDSYGNSFMHWYLQKPGQSPQLLIYLASNLESGVSDRFSGSGSGTDFTLRISRVEANDTGVYYCQQNNEDPLTFGQ
no binding	no binding			felHclbH618x-KD2-2 (antibody, V domains shown) VH: QVLLVQSGAEVRKPGASVKIFCKASGYTFITYYMHWLRQAPEQGLEWMGQIFPASGSTNYNEMFEGRLTLTADTSTNTAYMELSSLRSADTAMYYCARGDGNYALDAMDYWGQGALVTVSS VL: DVVMTQTPLSLPVTPGEPASISCRASESVDSYGNSFMHWYLQKPGQSPRRLIYLASNLESGVPDRFSGSGSGTDFTLRISRVEADDVGVYYCQQNNEDPLTFGAGT
no binding	no binding			felHclb_heterochimera-1 (antibody, V domains shown) VH: QVLLVQSGAEVRRPGASVKIFCKASGYIFITYYMHWLRQAPAQGFEWMGSIFPASGSTSYAQKFQGRLTLTADTSTDTAYMELSSLRSADTAVYYCARGDGNYALDAMDYWGHGTIVTVSS VL: DIVMTQTPPSLSVSPRETASISCRASESVDSYGNSFMHWYLQKPGQSPQLLIYLASNLESGVSDRFSGSGSGTDFTLRISRVEANDTGVYYCQQNNEDPLTFGQ
no binding	no binding			felHclbH1-1x-KD2-2 (antibody, V domains shown) VH: QVLLVQSGAEVRTPGASVKIFCKASGYIFITYYMHWVRQSPAQGLEWMGQIFPASGSTNYNEMFEGRLTLTADTSTNTAYMELSSLRSADTAMYYCARGDGNYALDAMDYWGQGTSVTVSS VL: DVVMTQTPLSLPVTPGEPASISCRASESVDSYGNSFMHWYLQKPGQSPRRLIYLASNLESGVPDRFSGSGSGTDFTLRISRVEADDVGVYYCQQNNEDPLTFGAGT
		binds	binds	04H09 (mouse) (antibody, V domains shown) VH: QVQLQQSGAELVKPGASVKISCKASGYAFSSSWMNWVKQRPGKGLEWIGQIYPGDGDTNYNGKFKGKATLTADKSSSTAYMQLSSLTSEDSAVYFCARHYDGSTDYWGQGTTLTVSS VL: DIQMTQSPASLSVSVGETVTITCRASENIYSNLAWYQQKQGKSPQLLVYAATNLADGVPSRFSGSGSGTQYSLKINSLQSEDFGSYYCQHFWGTPYTFGGGTKLEIK
		binds	binds	chi04H09 (mouse-dog) (antibody, V domains shown) VH: QVQLQQSGAELVKPGASVKISCKASGYAFSSSWMNWVKQRPGKGLEWIGQIYPGDGDTNYNGKFKGKATLTADKSSSTAYMQLSSLTSEDSAVYFCARHYDGSTDYWGQGTTLTVSS VL: DIQMTQSPASLSVSVGETVTITCRASENIYSNLAWYQQKQGKSPQLLVYAATNLADGVPSRFSGSGSGTQYSLKINSLQSEDFGSYYCQHFWGTPYTFGGGTKLEIKR
